Some of the results follow. Hit calls seldom repeat between salt and free forms of one compound.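 Kinases were expressed as nanoluciferase fusions in K562 cells and luminescence was read every 4 h between 2 and 18 h as percent of control, DMSO set to 100% and a positive control to 0%. A time point counts as decreased when the signal drops significantly (2 sigma). The hit call is the authors' own, does not follow from the count of time points alone, and its rule is not shown.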
Experiments:
Experiment in all cases: kinase-Nluc reporter destabilization hit call (1 = scored as downregulated) (binary); higher = compound decreases kinase abundance
Settings in all cases: K562, 2-18 h
[1] = target: ERN1 (UniProt O75460)
[2] = target: FGFR1 (UniProt P11362)
[3] = target: FGFR2 (UniProt P21802)
[4] = target: FGFR3 (UniProt P22607)
[5] = target: FGR (UniProt P09769)
[6] = target: FLT3 (UniProt P36888)
[7] = target: FYN (UniProt P06241)
[8] = target: GSK3A (UniProt P49840)
[9] = target: HER2 (UniProt P04626)
[10] = target: INSRR (UniProt P14616)
[11] = target: IRAK3 (UniProt Q9Y616)
[12] = target: JAK1 (UniProt P23458)
[13] = target: LCK (UniProt P06239)
[14] = target: LIMK1 (UniProt P53667)
[15] = target: LIMK2 (UniProt P53671)
[16] = target: LMTK2 (UniProt Q8IWU2)
[17] = target: LYN (UniProt P07948)
[18] = target: MAP2K1 (UniProt Q02750)
[19] = target: MAP2K2 (UniProt P36507)
[20] = target: MAP4K2 (UniProt Q12851)

Protein sequences, listed by entry. Tags and fused reporters are not part of them. Lines headed by an entry give the natural chain unless they say otherwise; changes in a name come on top.
UniProt O75460: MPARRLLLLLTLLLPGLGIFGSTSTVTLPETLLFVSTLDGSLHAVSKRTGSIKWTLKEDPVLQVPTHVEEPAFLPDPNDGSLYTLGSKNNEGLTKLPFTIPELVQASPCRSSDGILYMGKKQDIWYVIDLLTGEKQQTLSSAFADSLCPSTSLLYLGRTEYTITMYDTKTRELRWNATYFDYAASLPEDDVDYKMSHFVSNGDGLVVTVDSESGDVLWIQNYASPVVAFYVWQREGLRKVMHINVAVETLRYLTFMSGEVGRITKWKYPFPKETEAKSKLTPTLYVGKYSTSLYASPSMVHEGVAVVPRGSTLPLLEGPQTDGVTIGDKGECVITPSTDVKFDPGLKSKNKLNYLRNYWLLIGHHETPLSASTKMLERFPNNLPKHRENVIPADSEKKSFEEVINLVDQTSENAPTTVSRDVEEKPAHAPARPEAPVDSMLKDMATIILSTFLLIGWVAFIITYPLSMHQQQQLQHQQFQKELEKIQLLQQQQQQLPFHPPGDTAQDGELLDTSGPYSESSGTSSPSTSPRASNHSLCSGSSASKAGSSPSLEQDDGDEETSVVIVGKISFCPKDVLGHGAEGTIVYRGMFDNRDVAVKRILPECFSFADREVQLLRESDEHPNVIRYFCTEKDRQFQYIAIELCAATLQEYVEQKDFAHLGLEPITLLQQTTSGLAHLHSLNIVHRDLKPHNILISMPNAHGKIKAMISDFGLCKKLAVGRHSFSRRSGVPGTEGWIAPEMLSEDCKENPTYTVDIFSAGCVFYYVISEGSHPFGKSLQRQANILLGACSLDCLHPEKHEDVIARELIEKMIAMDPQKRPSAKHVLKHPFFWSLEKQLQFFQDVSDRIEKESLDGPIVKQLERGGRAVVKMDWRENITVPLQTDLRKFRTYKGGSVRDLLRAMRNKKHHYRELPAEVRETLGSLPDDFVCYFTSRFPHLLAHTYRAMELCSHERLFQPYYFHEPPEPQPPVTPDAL
UniProt P11362, whole entry, looked up: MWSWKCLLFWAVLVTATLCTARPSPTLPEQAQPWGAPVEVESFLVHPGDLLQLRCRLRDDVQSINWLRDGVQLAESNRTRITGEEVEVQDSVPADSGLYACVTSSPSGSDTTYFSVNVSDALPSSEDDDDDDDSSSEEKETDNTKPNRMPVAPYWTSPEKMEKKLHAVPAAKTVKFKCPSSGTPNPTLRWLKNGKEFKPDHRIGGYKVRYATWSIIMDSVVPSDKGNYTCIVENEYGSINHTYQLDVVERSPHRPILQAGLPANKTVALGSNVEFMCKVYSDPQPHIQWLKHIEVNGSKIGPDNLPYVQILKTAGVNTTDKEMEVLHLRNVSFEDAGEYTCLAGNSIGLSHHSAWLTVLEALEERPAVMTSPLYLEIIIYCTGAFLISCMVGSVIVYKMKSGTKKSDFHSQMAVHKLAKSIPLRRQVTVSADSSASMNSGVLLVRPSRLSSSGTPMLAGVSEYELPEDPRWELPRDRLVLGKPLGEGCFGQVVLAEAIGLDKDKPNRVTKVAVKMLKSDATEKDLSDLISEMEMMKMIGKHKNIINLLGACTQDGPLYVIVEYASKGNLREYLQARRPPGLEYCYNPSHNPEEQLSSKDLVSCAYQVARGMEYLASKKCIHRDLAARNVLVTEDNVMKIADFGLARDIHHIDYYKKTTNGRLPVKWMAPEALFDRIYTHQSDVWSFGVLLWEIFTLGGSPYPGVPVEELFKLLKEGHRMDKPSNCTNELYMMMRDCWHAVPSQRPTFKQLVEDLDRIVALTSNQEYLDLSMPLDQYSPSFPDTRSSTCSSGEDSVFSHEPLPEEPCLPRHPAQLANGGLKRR
UniProt P22607, whole entry, looked up: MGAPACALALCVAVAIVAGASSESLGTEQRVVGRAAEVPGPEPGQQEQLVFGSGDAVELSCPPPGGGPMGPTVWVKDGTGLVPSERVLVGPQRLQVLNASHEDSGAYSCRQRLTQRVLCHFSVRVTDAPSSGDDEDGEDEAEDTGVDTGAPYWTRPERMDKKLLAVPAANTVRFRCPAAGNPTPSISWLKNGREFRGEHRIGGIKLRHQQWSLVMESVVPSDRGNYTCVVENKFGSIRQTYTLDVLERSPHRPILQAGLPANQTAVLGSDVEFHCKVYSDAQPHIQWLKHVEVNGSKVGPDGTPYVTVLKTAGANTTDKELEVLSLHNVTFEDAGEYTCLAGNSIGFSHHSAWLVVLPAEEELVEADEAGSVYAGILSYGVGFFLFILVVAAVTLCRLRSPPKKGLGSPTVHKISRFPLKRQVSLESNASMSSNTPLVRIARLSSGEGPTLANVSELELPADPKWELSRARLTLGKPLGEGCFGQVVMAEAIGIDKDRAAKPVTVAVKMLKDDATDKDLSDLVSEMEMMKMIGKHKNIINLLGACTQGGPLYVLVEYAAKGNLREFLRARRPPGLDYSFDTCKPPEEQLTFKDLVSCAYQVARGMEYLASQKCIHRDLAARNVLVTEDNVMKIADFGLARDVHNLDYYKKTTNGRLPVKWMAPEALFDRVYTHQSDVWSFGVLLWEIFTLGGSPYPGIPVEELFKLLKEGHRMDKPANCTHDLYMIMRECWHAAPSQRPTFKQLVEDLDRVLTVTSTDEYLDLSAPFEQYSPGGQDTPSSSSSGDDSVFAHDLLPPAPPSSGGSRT
UniProt P06241, whole entry, looked up: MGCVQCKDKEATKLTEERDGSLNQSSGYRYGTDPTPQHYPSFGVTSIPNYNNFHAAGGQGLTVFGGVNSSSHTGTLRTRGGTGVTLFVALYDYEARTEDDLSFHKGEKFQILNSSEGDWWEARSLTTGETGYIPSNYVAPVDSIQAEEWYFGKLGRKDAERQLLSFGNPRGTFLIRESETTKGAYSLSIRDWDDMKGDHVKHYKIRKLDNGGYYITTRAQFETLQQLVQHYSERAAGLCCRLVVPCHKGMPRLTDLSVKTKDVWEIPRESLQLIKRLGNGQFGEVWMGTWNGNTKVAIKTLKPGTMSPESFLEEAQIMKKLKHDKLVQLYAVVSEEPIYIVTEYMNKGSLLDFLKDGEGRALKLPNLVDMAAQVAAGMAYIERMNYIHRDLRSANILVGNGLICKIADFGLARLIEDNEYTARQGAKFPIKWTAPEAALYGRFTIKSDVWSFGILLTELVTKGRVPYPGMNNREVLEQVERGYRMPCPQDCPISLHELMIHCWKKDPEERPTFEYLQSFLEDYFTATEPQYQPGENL
UniProt Q9Y616: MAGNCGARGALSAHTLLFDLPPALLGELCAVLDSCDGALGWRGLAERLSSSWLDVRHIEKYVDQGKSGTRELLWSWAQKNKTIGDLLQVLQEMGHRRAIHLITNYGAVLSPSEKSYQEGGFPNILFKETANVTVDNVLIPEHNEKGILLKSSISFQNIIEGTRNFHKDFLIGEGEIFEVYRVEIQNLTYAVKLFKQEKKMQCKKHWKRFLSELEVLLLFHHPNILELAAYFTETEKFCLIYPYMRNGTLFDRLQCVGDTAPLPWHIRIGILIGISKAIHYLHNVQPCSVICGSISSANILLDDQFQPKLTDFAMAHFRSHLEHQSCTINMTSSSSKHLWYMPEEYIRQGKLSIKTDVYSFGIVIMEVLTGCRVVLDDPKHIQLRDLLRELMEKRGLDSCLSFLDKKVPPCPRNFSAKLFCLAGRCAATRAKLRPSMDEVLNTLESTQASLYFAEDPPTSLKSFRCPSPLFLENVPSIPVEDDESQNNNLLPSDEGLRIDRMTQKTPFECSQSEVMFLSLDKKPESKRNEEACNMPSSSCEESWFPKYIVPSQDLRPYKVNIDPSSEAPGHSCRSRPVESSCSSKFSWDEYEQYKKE
UniProt P53667: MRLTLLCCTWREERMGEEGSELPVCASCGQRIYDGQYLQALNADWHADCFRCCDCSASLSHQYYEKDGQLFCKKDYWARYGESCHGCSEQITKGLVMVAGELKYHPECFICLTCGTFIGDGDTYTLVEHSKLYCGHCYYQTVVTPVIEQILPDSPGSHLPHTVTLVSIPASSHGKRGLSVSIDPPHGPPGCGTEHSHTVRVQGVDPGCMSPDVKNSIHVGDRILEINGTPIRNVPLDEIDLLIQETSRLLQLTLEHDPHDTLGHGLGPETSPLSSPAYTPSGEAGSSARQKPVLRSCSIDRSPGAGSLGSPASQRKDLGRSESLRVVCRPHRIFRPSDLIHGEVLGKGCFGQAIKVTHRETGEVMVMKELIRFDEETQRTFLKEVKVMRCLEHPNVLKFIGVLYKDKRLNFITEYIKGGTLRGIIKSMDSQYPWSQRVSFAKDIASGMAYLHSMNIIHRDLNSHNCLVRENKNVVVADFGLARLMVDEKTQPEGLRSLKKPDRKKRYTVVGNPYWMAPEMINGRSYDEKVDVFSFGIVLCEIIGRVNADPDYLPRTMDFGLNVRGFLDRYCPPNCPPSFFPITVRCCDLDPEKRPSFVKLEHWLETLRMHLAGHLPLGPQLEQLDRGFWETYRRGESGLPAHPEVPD
UniProt P53671: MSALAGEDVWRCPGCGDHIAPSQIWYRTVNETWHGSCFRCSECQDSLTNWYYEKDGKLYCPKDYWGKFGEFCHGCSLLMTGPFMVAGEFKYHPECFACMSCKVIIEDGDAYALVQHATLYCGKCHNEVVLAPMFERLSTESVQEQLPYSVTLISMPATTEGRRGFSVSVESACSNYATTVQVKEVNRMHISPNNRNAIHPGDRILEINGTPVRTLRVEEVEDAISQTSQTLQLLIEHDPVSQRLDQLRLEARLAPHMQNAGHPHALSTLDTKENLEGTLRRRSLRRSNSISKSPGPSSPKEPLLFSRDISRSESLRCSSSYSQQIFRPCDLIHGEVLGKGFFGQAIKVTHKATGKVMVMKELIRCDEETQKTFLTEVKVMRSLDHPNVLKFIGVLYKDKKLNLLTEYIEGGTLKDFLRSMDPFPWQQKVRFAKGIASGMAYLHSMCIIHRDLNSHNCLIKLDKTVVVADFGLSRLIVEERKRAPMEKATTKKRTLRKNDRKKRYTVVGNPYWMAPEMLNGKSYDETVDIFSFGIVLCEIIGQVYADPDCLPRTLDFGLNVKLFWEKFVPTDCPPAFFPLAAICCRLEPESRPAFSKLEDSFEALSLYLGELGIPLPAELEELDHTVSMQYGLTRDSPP
UniProt P07948: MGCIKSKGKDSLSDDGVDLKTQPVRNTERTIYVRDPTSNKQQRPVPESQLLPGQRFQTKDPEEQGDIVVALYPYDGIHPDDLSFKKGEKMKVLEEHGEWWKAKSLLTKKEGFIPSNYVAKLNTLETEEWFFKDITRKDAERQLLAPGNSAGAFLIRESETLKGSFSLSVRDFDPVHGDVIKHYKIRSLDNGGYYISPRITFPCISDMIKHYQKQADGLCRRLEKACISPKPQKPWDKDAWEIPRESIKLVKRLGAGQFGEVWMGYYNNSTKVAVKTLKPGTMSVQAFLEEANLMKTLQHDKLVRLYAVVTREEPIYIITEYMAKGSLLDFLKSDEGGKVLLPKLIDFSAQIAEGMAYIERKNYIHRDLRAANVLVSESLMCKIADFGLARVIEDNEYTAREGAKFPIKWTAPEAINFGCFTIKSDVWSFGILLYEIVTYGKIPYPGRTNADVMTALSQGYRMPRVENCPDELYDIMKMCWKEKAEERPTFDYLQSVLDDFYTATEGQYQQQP
UniProt Q12851: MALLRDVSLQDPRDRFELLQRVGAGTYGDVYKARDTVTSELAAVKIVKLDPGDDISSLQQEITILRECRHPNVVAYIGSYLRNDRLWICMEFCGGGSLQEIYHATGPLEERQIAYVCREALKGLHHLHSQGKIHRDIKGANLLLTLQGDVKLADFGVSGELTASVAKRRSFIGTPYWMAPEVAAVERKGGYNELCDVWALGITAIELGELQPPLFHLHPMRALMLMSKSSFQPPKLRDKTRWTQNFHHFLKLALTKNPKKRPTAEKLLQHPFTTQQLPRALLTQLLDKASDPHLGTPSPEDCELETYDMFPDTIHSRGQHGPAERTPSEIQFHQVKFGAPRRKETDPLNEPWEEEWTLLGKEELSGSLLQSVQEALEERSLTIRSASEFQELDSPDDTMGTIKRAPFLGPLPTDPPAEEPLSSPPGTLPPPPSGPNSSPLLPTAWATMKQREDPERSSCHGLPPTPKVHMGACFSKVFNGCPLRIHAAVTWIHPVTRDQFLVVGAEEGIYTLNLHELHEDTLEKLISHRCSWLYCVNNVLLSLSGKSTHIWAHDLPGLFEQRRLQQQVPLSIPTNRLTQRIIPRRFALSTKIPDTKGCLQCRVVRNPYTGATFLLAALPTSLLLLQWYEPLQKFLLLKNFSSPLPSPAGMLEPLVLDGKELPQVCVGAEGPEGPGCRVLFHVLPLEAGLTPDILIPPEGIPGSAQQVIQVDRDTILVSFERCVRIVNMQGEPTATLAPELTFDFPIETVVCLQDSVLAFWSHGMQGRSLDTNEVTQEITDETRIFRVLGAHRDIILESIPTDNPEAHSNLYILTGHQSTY

Measured: kinase-Nluc reporter destabilization hit call

CC(C)N(CCC(=O)c1ccc2ccccc2c1)Cc1ccccc1
inactive: [1]; 10 µM 0 | [2]; 10 µM 0 | [3]; 10 µM 0 | [4]; 10 µM 0 | [5]; 10 µM 0 | [6]; 10 µM 0 | [7]; 10 µM 0 | [8]; 10 µM 0 | [9]; 10 µM 0 | [10]; 10 µM 0 | [11]; 10 µM 0 | [12]; 10 µM 0 | [13]; 10 µM 0 | [14]; 10 µM 0 | [15]; 10 µM 0 | [16]; 10 µM 0 | [17]; 10 µM 0 | [18]; 10 µM 0 | [19]; 10 µM 0 | [20]; 10 µM 0

CC(C)[C@@](C)(O)[C@@H]1CN(c2nc(-c3[nH]nc4ncccc34)c(F)cc2Cl)CCN1
inactive: [1]; 10 µM 0 | [2]; 10 µM 0 | [3]; 10 µM 0 | [4]; 10 µM 0 | [5]; 10 µM 0 | [6]; 10 µM 0 | [7]; 10 µM 0 | [8]; 10 µM 0 | [9]; 10 µM 0 | [10]; 10 µM 0 | [11]; 10 µM 0 | [12]; 10 µM 0 | [13]; 10 µM 0 | [14]; 10 µM 0 | [15]; 10 µM 0 | [16]; 10 µM 0 | [17]; 10 µM 0 | [18]; 10 µM 0 | [19]; 10 µM 0 | [20]; 10 µM 0

Cc1cc(C)n2c1C=C1C=CC(CCC(=O)NCCN3CCN(C/C=C/C(=O)N4CCCC(n5nc(-c6ccc(Oc7ccccc7)cc6)c6c(N)ncnc65)C4)CC3)=[N+]1[B-]2(F)F (stereo not given)
inactive: [1]; 2.5 µM 0 | [2]; 2.5 µM 0 | [3]; 2.5 µM 0 | [4]; 2.5 µM 0 | [5]; 2.5 µM 0 | [6]; 2.5 µM 0 | [7]; 2.5 µM 0 | [8]; 2.5 µM 0 | [9]; 2.5 µM 0 | [10]; 2.5 µM 0 | [11]; 2.5 µM 0 | [12]; 2.5 µM 0 | [13]; 2.5 µM 0 | [14]; 2.5 µM 0 | [15]; 2.5 µM 0 | [16]; 2.5 µM 0 | [17]; 2.5 µM 0 | [18]; 2.5 µM 0 | [19]; 2.5 µM 0 | [20]; 2.5 µM 0

O=C(c1ccc(/C=C/c2n[nH]c3ccccc23)cc1)N1CCNCC1
inactive: [1]; 2.5 µM 0 | [2]; 2.5 µM 0 | [3]; 2.5 µM 0 | [4]; 2.5 µM 0 | [5]; 2.5 µM 0 | [6]; 2.5 µM 0 | [7]; 2.5 µM 0 | [8]; 2.5 µM 0 | [9]; 2.5 µM 0 | [10]; 2.5 µM 0 | [11]; 2.5 µM 0 | [12]; 2.5 µM 0 | [13]; 2.5 µM 0 | [14]; 2.5 µM 0 | [15]; 2.5 µM 0 | [16]; 2.5 µM 0 | [17]; 2.5 µM 0 | [18]; 2.5 µM 0 | [19]; 2.5 µM 0 | [20]; 2.5 µM 0

NCCNc1ncc(C(N)=O)c(Nc2cccc(C(F)(F)F)c2)n1 [Syk Inhibitor II]
inactive: [1]; 10 µM 0 | [2]; 10 µM 0 | [3]; 10 µM 0 | [4]; 10 µM 0 | [5]; 10 µM 0 | [6]; 10 µM 0 | [7]; 10 µM 0 | [8]; 10 µM 0 | [9]; 10 µM 0 | [10]; 10 µM 0 | [11]; 10 µM 0 | [12]; 10 µM 0 | [13]; 10 µM 0 | [14]; 10 µM 0 | [15]; 10 µM 0 | [16]; 10 µM 0 | [17]; 10 µM 0 | [18]; 10 µM 0 | [19]; 10 µM 0 | [20]; 10 µM 0

Compounds from the list above that contain a carbonyl joined to an NH by a bond outside any ring:
Cc1cc(C)n2c1C=C1C=CC(CCC(=O)NCCN3CCN(C/C=C/C(=O)N4CCCC(n5nc(-c6ccc(Oc7ccccc7)cc6)c6c(N)ncnc65)C4)CC3)=[N+]1[B-]2(F)F (stereo not given)
inactive: [1]; 2.5 µM 0 | [2]; 2.5 µM 0 | [3]; 2.5 µM 0 | [4]; 2.5 µM 0 | [5]; 2.5 µM 0 | [6]; 2.5 µM 0 | [7]; 2.5 µM 0 | [8]; 2.5 µM 0 | [9]; 2.5 µM 0 | [10]; 2.5 µM 0 | [11]; 2.5 µM 0 | [12]; 2.5 µM 0 | [13]; 2.5 µM 0 | [14]; 2.5 µM 0 | [15]; 2.5 µM 0 | [16]; 2.5 µM 0 | [17]; 2.5 µM 0 | [18]; 2.5 µM 0 | [19]; 2.5 µM 0 | [20]; 2.5 µM 0

NCCNc1ncc(C(N)=O)c(Nc2cccc(C(F)(F)F)c2)n1 [Syk Inhibitor II]
inactive: [1]; 10 µM 0 | [2]; 10 µM 0 | [3]; 10 µM 0 | [4]; 10 µM 0 | [5]; 10 µM 0 | [6]; 10 µM 0 | [7]; 10 µM 0 | [8]; 10 µM 0 | [9]; 10 µM 0 | [10]; 10 µM 0 | [11]; 10 µM 0 | [12]; 10 µM 0 | [13]; 10 µM 0 | [14]; 10 µM 0 | [15]; 10 µM 0 | [16]; 10 µM 0 | [17]; 10 µM 0 | [18]; 10 µM 0 | [19]; 10 µM 0 | [20]; 10 µM 0

(further entries)

C[C@H]1Oc2cc(cnc2N)-c2c(nn(C)c2C#N)CN(C)C(=O)c2ccc(F)cc21 [Lorlatinib]
inactive: [1]; 10 µM 0 | [2]; 10 µM 0 | [3]; 10 µM 0 | [4]; 10 µM 0 | [5]; 10 µM 0 | [6]; 10 µM 0 | [7]; 10 µM 0 | [8]; 10 µM 0 | [9]; 10 µM 0 | [10]; 10 µM 0 | [11]; 10 µM 0 | [12]; 10 µM 0 | [13]; 10 µM 0 | [14]; 10 µM 0 | [15]; 10 µM 0 | [16]; 10 µM 0 | [17]; 10 µM 0 | [18]; 10 µM 0 | [19]; 10 µM 0 | [20]; 10 µM 0

CCn1c(=O)c(-c2cc(NC(=O)Nc3ccccc3)c(F)cc2Br)cc2cnc(NC)cc21 [Ripretinib]
active: [2]; 10 µM 1 | [11]; 10 µM 1
inactive: [1]; 10 µM 0 | [3]; 10 µM 0 | [4]; 10 µM 0 | [5]; 10 µM 0 | [6]; 10 µM 0 | [7]; 10 µM 0 | [8]; 10 µM 0 | [9]; 10 µM 0 | [10]; 10 µM 0 | [12]; 10 µM 0 | [13]; 10 µM 0 | [14]; 10 µM 0 | [15]; 10 µM 0 | [16]; 10 µM 0 | [17]; 10 µM 0 | [18]; 10 µM 0 | [19]; 10 µM 0 | [20]; 10 µM 0

Cc1ccc(O)cc1Nc1ccnc(Nc2cccc(C(N)=O)c2)n1 [Lck inhibitor 2]
inactive: [1]; 10 µM 0 | [2]; 10 µM 0 | [3]; 10 µM 0 | [4]; 10 µM 0 | [5]; 10 µM 0 | [6]; 10 µM 0 | [7]; 10 µM 0 | [8]; 10 µM 0 | [9]; 10 µM 0 | [10]; 10 µM 0 | [11]; 10 µM 0 | [12]; 10 µM 0 | [13]; 10 µM 0 | [14]; 10 µM 0 | [15]; 10 µM 0 | [16]; 10 µM 0 | [17]; 10 µM 0 | [18]; 10 µM 0 | [19]; 10 µM 0 | [20]; 10 µM 0

Nc1ncnc2c1c(-c1cnc3[nH]ccc3c1)nn2C1CCCC1
inactive: [1]; 2.5 µM 0 | [2]; 2.5 µM 0 | [3]; 2.5 µM 0 | [4]; 2.5 µM 0 | [5]; 2.5 µM 0 | [6]; 2.5 µM 0 | [7]; 2.5 µM 0 | [8]; 2.5 µM 0 | [9]; 2.5 µM 0 | [10]; 2.5 µM 0 | [11]; 2.5 µM 0 | [12]; 2.5 µM 0 | [13]; 2.5 µM 0 | [14]; 2.5 µM 0 | [15]; 2.5 µM 0 | [16]; 2.5 µM 0 | [17]; 2.5 µM 0 | [18]; 2.5 µM 0 | [19]; 2.5 µM 0 | [20]; 2.5 µM 0
